The supplement of paper PMC11006884
Shown are results outside the selection of targets with a hit, which stands elsewhere. Single values of this set are uncertain. The entries are a selection whose mix differs from that of the whole data set.

Protein sequences, listed by entry. Tags and fused reporters are not part of them. Lines headed by an entry give the natural chain unless they say otherwise; changes in a name come on top.
UniProt P42765: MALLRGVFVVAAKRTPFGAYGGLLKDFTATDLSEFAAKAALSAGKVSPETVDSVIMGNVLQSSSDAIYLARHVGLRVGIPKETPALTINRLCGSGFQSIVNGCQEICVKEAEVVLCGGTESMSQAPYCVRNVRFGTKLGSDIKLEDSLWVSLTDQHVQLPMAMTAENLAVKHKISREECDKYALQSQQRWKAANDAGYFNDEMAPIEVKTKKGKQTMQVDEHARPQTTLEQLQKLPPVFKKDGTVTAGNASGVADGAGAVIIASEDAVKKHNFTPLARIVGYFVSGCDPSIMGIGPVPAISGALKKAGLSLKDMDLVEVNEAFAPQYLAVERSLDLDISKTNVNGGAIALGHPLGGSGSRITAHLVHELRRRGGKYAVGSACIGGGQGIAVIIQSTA
UniProt P31040: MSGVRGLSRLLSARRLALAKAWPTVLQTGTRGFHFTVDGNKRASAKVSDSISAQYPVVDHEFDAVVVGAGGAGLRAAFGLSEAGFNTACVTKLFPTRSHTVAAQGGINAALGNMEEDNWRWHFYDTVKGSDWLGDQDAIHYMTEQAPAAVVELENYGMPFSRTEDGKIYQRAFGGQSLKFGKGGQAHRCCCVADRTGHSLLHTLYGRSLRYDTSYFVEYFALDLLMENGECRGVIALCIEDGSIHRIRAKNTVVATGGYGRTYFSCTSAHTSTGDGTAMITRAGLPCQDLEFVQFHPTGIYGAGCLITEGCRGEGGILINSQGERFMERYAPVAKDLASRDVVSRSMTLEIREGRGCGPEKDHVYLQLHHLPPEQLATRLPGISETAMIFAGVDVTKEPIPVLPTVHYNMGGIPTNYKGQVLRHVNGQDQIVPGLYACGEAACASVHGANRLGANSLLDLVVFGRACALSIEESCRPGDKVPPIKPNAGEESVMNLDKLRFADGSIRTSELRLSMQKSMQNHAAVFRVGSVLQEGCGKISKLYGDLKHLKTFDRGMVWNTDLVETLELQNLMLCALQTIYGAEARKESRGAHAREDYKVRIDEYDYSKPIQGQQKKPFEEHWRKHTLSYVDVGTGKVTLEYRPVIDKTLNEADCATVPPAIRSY
UniProt P35269, whole entry: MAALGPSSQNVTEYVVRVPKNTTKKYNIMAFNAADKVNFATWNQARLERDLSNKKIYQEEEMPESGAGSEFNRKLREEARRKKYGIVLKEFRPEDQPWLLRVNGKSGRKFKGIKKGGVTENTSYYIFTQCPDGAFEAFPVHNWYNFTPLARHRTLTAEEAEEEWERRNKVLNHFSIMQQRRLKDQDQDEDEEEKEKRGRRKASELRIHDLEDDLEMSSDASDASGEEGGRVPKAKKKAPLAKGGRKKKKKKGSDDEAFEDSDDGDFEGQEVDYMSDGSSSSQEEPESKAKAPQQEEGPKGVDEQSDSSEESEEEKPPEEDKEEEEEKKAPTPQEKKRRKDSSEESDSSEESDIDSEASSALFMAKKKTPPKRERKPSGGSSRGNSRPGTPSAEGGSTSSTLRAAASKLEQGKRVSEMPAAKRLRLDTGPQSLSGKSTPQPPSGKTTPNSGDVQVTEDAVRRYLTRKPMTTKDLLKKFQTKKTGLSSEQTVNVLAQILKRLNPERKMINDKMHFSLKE
UniProt P34896: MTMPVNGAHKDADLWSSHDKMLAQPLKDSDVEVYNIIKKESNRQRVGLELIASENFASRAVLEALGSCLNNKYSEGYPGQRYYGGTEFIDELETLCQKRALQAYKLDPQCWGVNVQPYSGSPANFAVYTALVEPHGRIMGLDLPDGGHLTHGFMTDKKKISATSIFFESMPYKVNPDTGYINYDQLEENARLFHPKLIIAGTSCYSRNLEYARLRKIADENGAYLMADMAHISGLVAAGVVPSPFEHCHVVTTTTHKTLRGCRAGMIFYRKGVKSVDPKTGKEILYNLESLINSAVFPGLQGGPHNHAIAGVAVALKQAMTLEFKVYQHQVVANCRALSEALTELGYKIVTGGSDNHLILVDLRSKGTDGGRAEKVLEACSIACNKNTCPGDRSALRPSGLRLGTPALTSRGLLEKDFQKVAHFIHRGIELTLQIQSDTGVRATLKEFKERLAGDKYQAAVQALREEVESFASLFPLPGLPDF
UniProt P35611: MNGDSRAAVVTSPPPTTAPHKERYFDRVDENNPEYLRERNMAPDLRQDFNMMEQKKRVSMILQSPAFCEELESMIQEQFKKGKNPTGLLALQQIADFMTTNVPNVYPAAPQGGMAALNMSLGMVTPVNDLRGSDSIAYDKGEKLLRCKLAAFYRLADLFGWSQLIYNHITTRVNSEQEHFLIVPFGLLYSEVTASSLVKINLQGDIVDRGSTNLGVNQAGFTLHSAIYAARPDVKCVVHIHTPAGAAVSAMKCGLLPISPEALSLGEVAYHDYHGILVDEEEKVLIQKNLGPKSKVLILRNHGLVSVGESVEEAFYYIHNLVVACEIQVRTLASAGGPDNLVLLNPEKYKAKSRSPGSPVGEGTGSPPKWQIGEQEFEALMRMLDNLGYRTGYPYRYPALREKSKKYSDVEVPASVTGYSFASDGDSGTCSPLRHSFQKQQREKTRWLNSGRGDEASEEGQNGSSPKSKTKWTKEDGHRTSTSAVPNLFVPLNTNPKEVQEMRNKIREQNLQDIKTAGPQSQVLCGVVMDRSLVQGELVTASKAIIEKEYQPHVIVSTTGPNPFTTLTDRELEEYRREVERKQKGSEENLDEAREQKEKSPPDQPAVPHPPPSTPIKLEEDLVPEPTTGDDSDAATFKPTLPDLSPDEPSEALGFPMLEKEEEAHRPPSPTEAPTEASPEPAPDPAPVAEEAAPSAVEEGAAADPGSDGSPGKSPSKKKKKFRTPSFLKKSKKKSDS
UniProt P42574: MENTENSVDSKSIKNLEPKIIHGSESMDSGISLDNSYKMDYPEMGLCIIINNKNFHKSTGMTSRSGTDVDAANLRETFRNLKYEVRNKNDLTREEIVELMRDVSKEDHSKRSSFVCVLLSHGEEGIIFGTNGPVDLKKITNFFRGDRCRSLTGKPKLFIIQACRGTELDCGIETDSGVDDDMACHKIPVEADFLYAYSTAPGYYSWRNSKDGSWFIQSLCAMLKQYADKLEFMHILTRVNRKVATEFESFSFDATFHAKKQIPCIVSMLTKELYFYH
UniProt P42167: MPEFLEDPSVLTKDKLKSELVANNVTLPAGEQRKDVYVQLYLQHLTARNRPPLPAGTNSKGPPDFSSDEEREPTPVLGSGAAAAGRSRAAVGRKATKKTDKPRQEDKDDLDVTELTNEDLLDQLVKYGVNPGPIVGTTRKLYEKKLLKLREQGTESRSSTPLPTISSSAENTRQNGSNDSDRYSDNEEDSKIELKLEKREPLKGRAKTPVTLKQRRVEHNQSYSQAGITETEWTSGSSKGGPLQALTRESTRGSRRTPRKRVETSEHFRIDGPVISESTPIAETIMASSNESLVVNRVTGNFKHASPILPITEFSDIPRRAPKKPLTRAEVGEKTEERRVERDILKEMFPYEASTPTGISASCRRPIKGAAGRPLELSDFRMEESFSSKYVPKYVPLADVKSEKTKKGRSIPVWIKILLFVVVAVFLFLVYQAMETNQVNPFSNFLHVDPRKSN
UniProt P35579, whole entry, looked up: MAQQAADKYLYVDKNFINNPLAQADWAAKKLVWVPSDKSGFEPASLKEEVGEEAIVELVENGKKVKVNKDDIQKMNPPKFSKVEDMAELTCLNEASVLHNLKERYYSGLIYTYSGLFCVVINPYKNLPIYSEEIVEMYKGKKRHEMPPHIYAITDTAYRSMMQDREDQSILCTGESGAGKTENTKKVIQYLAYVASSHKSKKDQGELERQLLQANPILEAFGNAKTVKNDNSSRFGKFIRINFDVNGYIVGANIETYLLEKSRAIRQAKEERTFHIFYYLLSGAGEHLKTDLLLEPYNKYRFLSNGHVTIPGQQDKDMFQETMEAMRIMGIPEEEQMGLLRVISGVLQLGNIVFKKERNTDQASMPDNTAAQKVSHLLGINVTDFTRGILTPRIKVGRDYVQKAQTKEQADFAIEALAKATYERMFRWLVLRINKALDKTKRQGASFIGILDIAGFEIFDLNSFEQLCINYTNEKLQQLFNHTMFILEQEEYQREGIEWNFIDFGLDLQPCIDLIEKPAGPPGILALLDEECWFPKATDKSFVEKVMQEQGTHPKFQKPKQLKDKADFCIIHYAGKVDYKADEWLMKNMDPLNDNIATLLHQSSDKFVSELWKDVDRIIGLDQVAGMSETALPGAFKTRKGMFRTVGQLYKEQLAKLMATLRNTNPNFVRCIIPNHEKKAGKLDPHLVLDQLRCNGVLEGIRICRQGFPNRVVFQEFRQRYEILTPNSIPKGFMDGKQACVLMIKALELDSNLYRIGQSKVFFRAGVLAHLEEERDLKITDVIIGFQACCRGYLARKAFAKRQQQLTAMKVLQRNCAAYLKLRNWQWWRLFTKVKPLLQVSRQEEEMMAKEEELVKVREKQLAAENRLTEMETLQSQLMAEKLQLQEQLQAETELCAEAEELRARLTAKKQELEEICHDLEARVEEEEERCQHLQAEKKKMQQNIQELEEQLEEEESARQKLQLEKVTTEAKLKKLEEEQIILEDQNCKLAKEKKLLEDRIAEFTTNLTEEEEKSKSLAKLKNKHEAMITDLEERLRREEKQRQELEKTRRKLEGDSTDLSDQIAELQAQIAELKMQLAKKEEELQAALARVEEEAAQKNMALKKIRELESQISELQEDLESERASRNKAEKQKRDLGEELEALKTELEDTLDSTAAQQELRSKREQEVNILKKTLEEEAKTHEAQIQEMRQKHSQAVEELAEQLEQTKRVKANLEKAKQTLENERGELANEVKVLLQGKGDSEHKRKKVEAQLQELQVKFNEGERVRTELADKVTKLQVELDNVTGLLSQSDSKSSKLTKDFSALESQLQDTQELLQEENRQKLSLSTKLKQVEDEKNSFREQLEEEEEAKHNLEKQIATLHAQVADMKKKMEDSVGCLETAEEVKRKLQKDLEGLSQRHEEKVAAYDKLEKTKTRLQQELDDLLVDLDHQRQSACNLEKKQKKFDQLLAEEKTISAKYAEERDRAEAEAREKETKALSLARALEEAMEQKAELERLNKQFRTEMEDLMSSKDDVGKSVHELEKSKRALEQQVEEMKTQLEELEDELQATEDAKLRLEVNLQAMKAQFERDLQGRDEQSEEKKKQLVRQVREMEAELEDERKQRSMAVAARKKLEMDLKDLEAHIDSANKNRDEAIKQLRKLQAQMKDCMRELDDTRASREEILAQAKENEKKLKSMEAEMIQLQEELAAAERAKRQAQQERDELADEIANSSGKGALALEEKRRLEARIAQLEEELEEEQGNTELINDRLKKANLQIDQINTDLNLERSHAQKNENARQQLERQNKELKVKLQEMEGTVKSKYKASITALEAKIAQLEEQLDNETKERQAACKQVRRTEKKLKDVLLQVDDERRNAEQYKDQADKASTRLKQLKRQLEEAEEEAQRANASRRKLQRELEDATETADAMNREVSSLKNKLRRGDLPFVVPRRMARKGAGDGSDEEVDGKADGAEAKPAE
UniProt P42285: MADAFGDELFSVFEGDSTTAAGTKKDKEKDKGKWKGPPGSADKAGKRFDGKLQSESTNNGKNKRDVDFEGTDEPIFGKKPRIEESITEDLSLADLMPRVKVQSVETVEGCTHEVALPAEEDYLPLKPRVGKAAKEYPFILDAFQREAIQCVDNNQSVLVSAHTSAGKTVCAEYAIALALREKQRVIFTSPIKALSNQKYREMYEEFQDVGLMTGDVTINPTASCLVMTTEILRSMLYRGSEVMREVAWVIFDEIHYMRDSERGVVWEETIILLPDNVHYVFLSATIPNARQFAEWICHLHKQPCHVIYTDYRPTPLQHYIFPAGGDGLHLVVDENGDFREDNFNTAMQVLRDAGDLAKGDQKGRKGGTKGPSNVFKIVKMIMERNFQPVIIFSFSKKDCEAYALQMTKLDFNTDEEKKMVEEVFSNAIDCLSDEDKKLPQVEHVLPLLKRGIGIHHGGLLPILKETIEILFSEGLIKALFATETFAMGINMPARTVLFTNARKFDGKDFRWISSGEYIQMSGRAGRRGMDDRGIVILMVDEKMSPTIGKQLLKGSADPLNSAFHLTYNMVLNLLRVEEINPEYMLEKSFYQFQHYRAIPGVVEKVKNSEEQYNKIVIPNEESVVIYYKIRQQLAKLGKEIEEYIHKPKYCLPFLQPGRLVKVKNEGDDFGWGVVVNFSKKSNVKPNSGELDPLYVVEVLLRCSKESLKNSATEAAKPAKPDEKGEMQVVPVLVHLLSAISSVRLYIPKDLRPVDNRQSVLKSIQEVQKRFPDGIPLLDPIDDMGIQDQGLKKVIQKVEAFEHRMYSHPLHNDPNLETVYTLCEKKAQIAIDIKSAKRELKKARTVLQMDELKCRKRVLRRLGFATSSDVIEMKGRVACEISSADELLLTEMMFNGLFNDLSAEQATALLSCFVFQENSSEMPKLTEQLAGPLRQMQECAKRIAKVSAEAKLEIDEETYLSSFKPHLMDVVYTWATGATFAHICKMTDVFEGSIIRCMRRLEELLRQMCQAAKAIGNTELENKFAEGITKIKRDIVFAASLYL

Compound: COC(=O)/C=C/c1ccccc1 [methyl cinnamate]
Assay: log2 ratio of iodoacetamide-alkyne labeling of the cysteine site, DMSO over compound (competition); higher = stronger covalent engagement of the cysteine by the compound, active = 1 or more
Conditions: 500 µM; treatment time 1 h; system: HEK293T cell lysate
How it was run: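 HEK293T lysate at 2 mg/mL was treated with vehicle or electrophile (500 µM) for 1 h at ambient temperature, then labelled with iodoacetamide alkyne (1 h), clicked to sCIP-TMT reagents, pooled, digested with trypsin overnight at 37 °C, enriched on streptavidin and eluted with acid. Peptides were analysed by Orbitrap Eclipse LC-MS/MS with FAIMS and quantified in FragPipe, using duplicate channels and three replicates, with cysteines quantified in only one replicate excluded. The log2 competition ratio for each cysteine is the mean control-channel reporter intensity divided by the mean compound-channel reporter intensity.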

log2 ratio of iodoacetamide-alkyne labeling, inactive:
ACAA2 C116 (UniProt P42765) 0.405
LRPPRC C1277 (UniProt P42704) 0.133
SDHA C305 (UniProt P31040) 0.0756
CA8 C266 (UniProt P35219) 0.0512
ABL2 C999 (UniProt P42684) 0.206
FUS C433 (UniProt P35637) 0.0575
ANP32A C123 (UniProt P39687) 0.149
UniProt P41214_C271 0.0502
GTF2F1 C130 (UniProt P35269) 0.529
TAGLN2 C38 (UniProt P37802) -0.0426
PPP2R1A C390 (UniProt P30153) 0.273
SHMT1 C110 (UniProt P34896) -0.0346
YWHAB C96 (UniProt P31946) 0.412
MCM5 C219 (UniProt P33992) 0.22
ADD1 C525 (UniProt P35611) 0.196
HMGCL C323 (UniProt P35914) 0.257
RPL4 C125 (UniProt P36578) 0.0376
SDHA C266 (UniProt P31040) 0.0638
MCM5 C355 (UniProt P33992) 0.211
MATR3 C806 (UniProt P43243) -0.0413
UniProt P42356_C1774 -0.141
ALDH1B1 C169 (UniProt P30837) 0.216
NCAPD3 C1389 (UniProt P42695) -0.104
ALDH1B1 C179 (UniProt P30837) -0.0202
DUT C222 (UniProt P33316) 0.183
HNRNPH1 C267 (UniProt P31943) 0.0252
RPL4 C250 (UniProt P36578) -0.154
MDH2 C212 (UniProt P40926) 0.28
CASP3 C184 (UniProt P42574) 0.15
TMPO C363 (UniProt P42167) 0.187
FDFT1 C374 (UniProt P37268) 0.173
GTF2H1 C506 (UniProt P32780) 0.345
RFC3 C11 (UniProt P40938) 0.216
MYH9 C694 (UniProt P35579) 0.18
UniProt P42285_C650 0.148
KIF5B C7 (UniProt P33176) 0.138
UniProt P41214_C489 0.201

Two records drawn at random from the list so far, as already listed:
log2 ratio of iodoacetamide-alkyne labeling, inactive:
ACAA2 C116 (UniProt P42765) 0.405
MDH2 C212 (UniProt P40926) 0.28
